These are yes or no findings as the source states them, for the method shown.
Experiments:
[1] = target: YFP-ANKS4B_(CEN-PBM) (human) (UniProt Q8N8V4); assay: MST; YFP-fused partner constant at 100 nM, non-fluorescent protein titrated (16 two-fold dilutions); 20 mM Hepes pH 7.0, 100 mM NaCl, 1 mM EGTA, 0.5 mM TCEP, 0.05% Tween 20; Monolith NT.115; both purified
YFP-SANS_(CEN-PBM) = YFP-SANS_(CEN-PBM) (UniProt Q495M9); assay: as above

Amino acid sequences for entries named in this document (tags omitted). A change or cut given only in a name is not applied to a line headed by its entry. Chains listed by the source or under a name are the forms on record and can include a tag or linker. Residues count along the entry.
UniProt Q8N8V4, residues 259-417: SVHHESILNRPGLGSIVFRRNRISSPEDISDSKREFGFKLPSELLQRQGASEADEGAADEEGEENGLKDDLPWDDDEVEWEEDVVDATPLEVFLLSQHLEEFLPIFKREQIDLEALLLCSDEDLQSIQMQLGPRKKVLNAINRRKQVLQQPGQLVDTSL
UniProt Q495M9, residues 300-461: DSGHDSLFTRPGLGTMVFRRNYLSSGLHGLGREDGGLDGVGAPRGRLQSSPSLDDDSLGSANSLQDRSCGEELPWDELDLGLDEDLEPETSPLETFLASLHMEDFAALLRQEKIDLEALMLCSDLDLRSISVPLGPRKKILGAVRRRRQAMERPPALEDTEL
Myosin 7b MF1.SH3 A1128E-R1129E-K1192E (Q6PIF6, form named): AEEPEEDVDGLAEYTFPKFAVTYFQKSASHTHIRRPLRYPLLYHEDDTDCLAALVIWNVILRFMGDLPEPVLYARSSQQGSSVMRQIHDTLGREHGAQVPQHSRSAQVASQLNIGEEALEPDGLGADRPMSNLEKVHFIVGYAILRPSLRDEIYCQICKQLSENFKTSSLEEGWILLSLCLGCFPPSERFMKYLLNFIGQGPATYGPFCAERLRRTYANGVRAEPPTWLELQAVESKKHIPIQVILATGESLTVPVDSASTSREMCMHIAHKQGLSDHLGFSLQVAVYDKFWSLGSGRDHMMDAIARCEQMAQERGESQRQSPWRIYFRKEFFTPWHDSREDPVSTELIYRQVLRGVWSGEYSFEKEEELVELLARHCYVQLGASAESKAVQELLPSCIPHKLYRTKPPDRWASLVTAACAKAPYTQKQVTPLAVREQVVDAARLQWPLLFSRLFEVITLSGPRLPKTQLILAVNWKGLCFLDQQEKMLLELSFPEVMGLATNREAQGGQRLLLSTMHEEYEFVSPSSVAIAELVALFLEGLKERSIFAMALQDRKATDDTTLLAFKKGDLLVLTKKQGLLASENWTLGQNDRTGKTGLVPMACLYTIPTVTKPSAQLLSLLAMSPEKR

binding [1]: no binding
binding (YFP-SANS_(CEN-PBM)): no binding
Substance: Myosin 7b MF1.SH3 A1128E-R1129E-K1192E (from UniProt Q6PIF6 958-1586) (domain or fragment)

From article PMC5493754
